Among the data in US5091367A (Hoechst Aktiengesellschaft, priority 1986, dated 1992) are step yield values, retold here.

The nature of this series: general procedure: solution-phase peptide synthesis; DCC/HOBt or DCC/HOObt with N-ethylmorpholine. Conditions: acetate.

Regarding “H-D-Ser(Ac4-β-D-Glc)-Leu-Arg-Pro-NH-C2H5”, the step yield (late stage modification step) amounted to 67%.

Under “coupling step”, “Z-D-Ser(Ac4 -β-D-Glc)-Leu-Arg-Pro-NH-C2 H5 -tosylate” displayed a step yield of 83%.
